The list shows a part of the results. These are further read-outs of the screen, such as a control signal, another cell line or another target. No call is given for them. The list favours compounds with an active or inconclusive main result. Potencies come from curve fits of mixed quality, noted in brackets.
Assay: qHTS Assay for Lipid Storage Modulators in Drosophila S3 Cells;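 as to cell number change: cells counted by Cell Tracker Red CMTPX staining in the red channel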
Conditions: BODIPY lipid droplet fluorescence, 18-24 h; for cell number change: measured here: cell count max response, cells fed with added oleic acid
How it was run: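 Drosophila S3 cells got compounds at several concentrations plus oleic acid (400 uM solution). Laser-scanning cytometry with 488 nm excitation read lipid droplets at 500-530 nm and cells at 575-640 nm. Percent activity was relative to 20 uM Triacsin C.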

[1] = measured here: cell number channel AC50, cells fed with added oleic acid
[2] = measured here: lipid fluorescence (Fed channel) AC50, cells fed with added oleic acid

| SMILES | cell number change | AC50 [1] | AC50 [2] |
| --- | --- | --- | --- |
| Cc1cc(NC(=O)CSc2nnc(-c3c[nH]c4ccccc34)n2-c2ccc(Cl)cc2)no1 | -56.2% | 29.1 µM [falling, single point] |  |
| Cn1c(=O)c2c(nc(CN3CCN(C(=O)c4ccco4)CC3)n2Cc2ccccc2F)n(C)c1=O | 53.3% | 2.91 µM [rising, full curve] | 1.03 µM [rising, full curve] |
| COc1ccc(NC2=Nc3cccc4cccc2c34)cc1OC |  |  | 13 µM [falling, partial curve, poor fit] |
| COc1cc(C(=O)NCc2ccncc2)cc(Br)c1OCc1ccccc1 | -8.47% |  | 13 µM [falling, single point] |
| N#CCCN(C(=O)COC(=O)c1ccc(S(=O)(=O)N2CCCCCC2)cc1)c1ccccc1 | 7.48% |  | 20.6 µM [falling, single point] |
| O=C(Cn1cc(C(F)(F)F)ccc1=O)N/N=C/c1cccc(Cl)c1Cl | -31.2% | 3.66 µM [falling, full curve, poor fit] | 8.2 µM [rising, partial curve] |
| CN(Cc1cccnc1)Cc1cn[nH]c1-c1ccc(-c2ccccc2)cc1 | 9.84% |  | 2.31 µM [rising, partial curve] |
| CC(C)=CCN1CCN(Cc2cccnc2)CC1CCO (centres undefined) | 30.9% | 0.146 µM [rising, full curve, poor fit] | 0.206 µM [rising, partial curve, poor fit] |
| O=C(CCC(=O)OCCCC(F)(F)C(F)(F)F)NC1CCCCC1 | -4.82% |  | 6.51 µM [falling, single point] |
| Cc1nn(Cc2c(F)c(F)c(F)c(F)c2F)c(C)c1NC(=O)c1nn(C)cc1[N+](=O)[O-] | 15.5% | 0.366 µM [rising, partial curve] | 0.291 µM [rising, full curve] |
| CCSc1ccc([C@@H]2[C@@H]3C(=O)N(CC)C(=O)[C@@H]3[C@]3(C(=O)OC)CCCN23)cc1 | -36.7% | 18.4 µM [falling, single point] | 29.1 µM [falling, single point] |
| COc1ccc(CCNC(=O)c2cc3c(=O)n4cccc(C)c4nc3n(Cc3ccncc3)c2=N)cc1 | -7% |  | 0.116 µM [falling, full curve, poor fit] |
| Cc1sc2ncnc(NC3CCN(Cc4ccccc4)CC3)c2c1C |  |  | 29.1 µM [rising, single point] |
| Cc1ccc(C(=O)Oc2coc(CSc3nnc(NC(=O)c4cccs4)s3)cc2=O)cc1 | 38.5% | 2.59 µM [rising, full curve] | 7.31 µM [rising, partial curve] |
| COc1ccc(-c2nnnn2C(C)C)cc1 | 13.3% |  |  |
| O=C(COC(=O)c1ccc(N2CCCC2=O)cc1)c1ccc(OC(F)F)cc1 | 0.451% |  | 29.1 µM [falling, single point] |
| Cc1nn(-c2ccccc2)c(N2CCCC2)c1/C=N/Nc1ccc(S(N)(=O)=O)cc1[N+](=O)[O-] | -16.2% |  | 1.84 µM [falling, partial curve] |
| CCSc1nc2c(c(=O)[nH]c(=O)n2C)n1C | -9.12% |  | 29.1 µM [falling, single point] |
| Cc1ccc(C)c(Nc2ncnc3nc[nH]c23)c1 | 54.9% | 9.2 µM [rising, partial curve] |  |
| O=C(NNC(=O)C1CCCO1)c1ccc(F)cc1 (centres undefined) | 4.44% | 4.11 µM [falling, partial curve, poor fit] | 4.11 µM [falling, single point] |

| SMILES | cell number change | AC50 [1] | AC50 [2] |
| --- | --- | --- | --- |
| CC(=O)Nc1cccc(C(=O)/C=C/c2ccc(C)cc2)c1 | -11.5% |  |  |
| Cc1ccc(NC(=O)C2CCCN(S(=O)(=O)c3cccc4nonc34)C2)cc1 (centres undefined) | 455% | 18.4 µM [rising, partial curve] |  |
| CCC(=O)NCCc1nc2ccccc2[nH]1 | -21.2% | 0.00461 µM [falling, full curve, poor fit] |  |
| COc1cc2c(cc1OC)C(C(=O)NCc1ccco1)C1c3ccccc3CCN1C2=O (centres undefined) | -14.4% |  |  |
| CC1CCC2C(=O)N(c3ccc(NC4CCCCC4)c([N+](=O)[O-])c3)C(=O)C2C1 (centres undefined) | -64% | 25.9 µM [falling, single point] |  |
| CCOc1ccc(N2C(=O)Nc3ccc(Br)cc3C2(O)C(=O)NCCCN(C)C)cc1 (centres undefined) |  |  | 0.651 µM [falling, single point] |
| Cc1ccnc(NC(=O)c2ccc(S(=O)(=O)N3CCCCCC3)cc2)c1 | 12.7% |  | 6.51 µM [rising, single point] |
| Cc1ccccc1N/N=C/c1c(C)nc2ccccn12 | 12.6% |  |  |
| COCCNC(=O)c1cc2c(=O)n3cccc(C)c3nc2n1C |  | 6.51 µM [falling, single point] | 1.3 µM [falling, full curve] |
| CC(=O)Nc1nc(C)c(Oc2ccccc2)c(=O)[nH]1 | 0.0714% |  |  |
| CC1(C)SC(=S)N(c2ccccc2)C1/[N+]([O-])=C/c1cccc([N+](=O)[O-])c1 (centres undefined) | -27.5% |  | 29.1 µM [falling, single point] |
| CCCCCOC(=O)CSc1n[nH]c(=O)[nH]c1=O | -22.8% |  | 29.1 µM [falling, single point] |
| O=C(Cc1csc(NC(=O)Nc2ccc(Cl)cc2)n1)NCc1cccnc1 |  | 0.461 µM [rising, full curve, poor fit] |  |
| Nc1nc(N2CCN(C/C=C/c3ccccc3)CC2)nc2ccccc12 |  |  | 3.26 µM [rising, partial curve, poor fit] |
| CCCCOc1ccc(S(=O)(=O)NCc2csc(C)n2)cc1 | 127% |  | 6.51 µM [falling, single point] |
| CCOC(=O)C1(Cc2ccccc2)CCN(C2Cc3ccccc3C2)CC1 | -6.56% | 0.13 µM [falling, full curve, poor fit] |  |
| O=C(CN1CCN(Cc2ccccc2)CC1)Nc1cccc(Cl)c1 | -19.3% |  | 4.11 µM [falling, full curve, poor fit] |
| O=C(NC(=S)Nc1ccc2c(c1)OCCO2)c1ccc(F)cc1Cl |  |  | 11.6 µM [rising, partial curve, poor fit] |
| O=C(NC1CCCc2ccccc21)c1ccc(F)cc1F (centres undefined) | -9.52% |  | 29.1 µM [rising, single point] |
| COc1ccc(CCNC(=O)CSc2nnc(-c3ccc(F)cc3)c3ccccc23)cc1OC | -85.4% | 4.11 µM [falling, full curve] | 2.06 µM [falling, full curve] |

Reformatted: 3 of the compounds above
SMILES	cell number change	AC50 [1]	AC50 [2]
CC1CCC2C(=O)N(c3ccc(NC4CCCCC4)c([N+](=O)[O-])c3)C(=O)C2C1 (centres undefined)	-64%	25.9 µM [falling, single point]	
CC1(C)SC(=S)N(c2ccccc2)C1/[N+]([O-])=C/c1cccc([N+](=O)[O-])c1 (centres undefined)	-27.5%		29.1 µM [falling, single point]
Nc1nc(N2CCN(C/C=C/c3ccccc3)CC2)nc2ccccc12			3.26 µM [rising, partial curve, poor fit]

The list goes on:

| SMILES | cell number change | AC50 [1] | AC50 [2] |
| --- | --- | --- | --- |
| COc1ccc2c(Cl)c(C(=O)NCCCn3ccnc3)sc2c1 | 3.79% |  | 0.82 µM [rising, full curve] |
| Cc1ccc(S(=O)(=O)Nc2ccccc2/C=N/c2nc3ccccc3n2C)cc1 | -0.707% |  | 29.1 µM [rising, single point] |
| O=C(COC(=O)Cc1cccc(C(F)(F)F)c1)Nc1cccc2ccccc12 | 8.71% |  | 4.11 µM [rising, single point] |
| Cc1cc(S(=O)(=O)N2CCOCC2)ccc1OCC(=O)N1CCC(C)CC1 | -32.5% | 1.03 µM [falling, full curve, poor fit] |  |
| CSCCC(NC(=O)c1ccc(Cl)cc1)C(=O)OCC(=O)Nc1cc(Cl)ccc1C#N (centres undefined) | -30.9% | 0.291 µM [falling, full curve, poor fit] | 0.82 µM [falling, full curve] |
| O=C(Nc1nccs1)c1cc(-c2ccccc2)nn1-c1ccccc1 | -18.4% | 4.61 µM [falling, partial curve] |  |
| CCN(CC)S(=O)(=O)c1ccc2c(c1)nc(SCC(=O)NCC1CCCO1)n2CC (centres undefined) | 12.8% |  | 32.6 µM [rising, single point] |
| CC(C)(C)C(=O)NC(n1cnc2c(N3CCOCC3)ncnc21)C(Cl)(Cl)Cl (centres undefined) | -26.4% |  | 18.4 µM [falling, single point] |
| O=[N+]([O-])c1ccc(N/N=C/c2cccnc2)cc1 | -2.46% |  | 16.4 µM [falling, single point] |
| Cc1cc(=O)n2c(ccc3ccccc32)c1C#N | 3.69% |  |  |
| CCOC(=O)Cc1csc(NC(=O)c2ccc3ccccc3n2)n1 | 30.8% | 11.6 µM [rising, partial curve, poor fit] |  |
| CCOc1ccc(-c2nnc(SCC(=O)N(CC)CC)n2N)cc1 | 13.2% |  | 1.3 µM [rising, partial curve, poor fit] |
| O=C(c1ccccc1)N1CCN(C(=O)c2ccc3c(c2)OCCO3)CC1 | -30.1% |  |  |
| COc1ccccc1NC(=O)Cn1c(=O)sc2ccccc21 | -1.92% |  | 5.17 µM [falling, single point] |
| COc1ccc(CNC(=O)C(=O)NCC2OCCN2S(=O)(=O)c2ccc3c(c2)OCCO3)cc1 (centres undefined) | 30% |  | 2.31 µM [rising, full curve, poor fit] |
| CCOc1cc(Br)c(C(=O)O)cc1OCC | -17.1% |  | 32.6 µM [falling, partial curve, poor fit] |
| Cc1ccc(NC(=O)/C(=C/c2cccc([N+](=O)[O-])c2)NC(=O)C2CCCCC2)cc1 |  |  | 1.64 µM [rising, partial curve] |
| CCCOC(=O)NC(CC)COC(=O)Nc1cc(C)ccc1C (centres undefined) | -17.8% |  | 0.366 µM [rising, full curve, poor fit] |
| CC(C)C(NC(=O)c1ccccc1F)C(=O)NCCc1ccccn1 (centres undefined) | 24.3% | 3.66 µM [rising, full curve, poor fit] | 7.31 µM [rising, partial curve] |
